Source: US9551722B2, “Amyloid binding agents” (The Regents of the University of California, priority 2009, dated 2017)
At least one structure is not confirmed: it was looked up by name or label, or the drawing left a doubt.

Tested on: amyloid plaques in human tissue from AD cases
Test: Fluorescence imaging of amyloid plaques in tissue sections
Conditions: frozen AD tissue sections, probe solution 30 min, washed with water
Protocol: FIGS. 11A-F depict fluorescence images of amyloid plaques in human tissue from AD cases. After the frozen tissue was sectioned and mounted to a glass slide, the tissue was exposed to a solution containing a fluorescent probe for 30 min. The sample was washed with water to eliminate non-specific staining of the tissue, and imaged using an inverted epi-fluorescence microscope. The images reveal the location of plaques that were stained with A) compound 27, B) compound 28, C) compound 29, D) compound 30, E) compound 31, or F) compound 33.

COCCOCCOCCOC(=O)/C(C#N)=C/c1ccc2cc(N3CCCCC3)ccc2c1 [Compound 27, (E)-2-(2-(2-methoxyethoxyl)ethoxy)ethyl 2-cyano-3-(2-(piperidin-1-yl)napthalen-6-yl)acrylate]
Staining of amyloid plaques (fluorescence image): stained
